PubChem BioAssay AID743454 – Peter MacCallum Cancer Centre | 2014

Screen: 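Genes whose loss kills vorinostat-resistant colon cancer cells under vorinostat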 (primary screen)
Cells: human HCT116-VR colon cancer cells, selected for vorinostat resistance
Knock-down reagent: siRNA pool against human genes, 40 nM siRNA pool
Timing: vorinostat for 24 h, read-out about 72 h after transfection
Conditions: vorinostat at 2.5 µM final
Read-out: 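Cell viability by CellTiter-Fluor and caspase 3/7 activity by luminescence, each scaled to mock wells per plate, duplicates averaged, then robust z-scored over all plates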
Scale: viability robust z-score: higher = more viable cells than screen typical; caspase robust z-score: higher = more caspase 3/7 activity than screen typical
Hit rule: 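Hits are knock-downs in viability class RV1/RV2 or caspase class CA1/CA2, excluding ones that killed cells in the no-drug cell-count arm; hits then retested with single siRNAs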
The whole screen tested about 18,000 reagents; below is an unselected part. In the full data, 450 (2.5%) got an active call. 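Single biological run; no consistent viability z cut-off exists, so the class columns, not z-scores, define the calls.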 Entries without a mark were called inactive.

What is on record for OR9A4?
viability hit class: no change; caspase hit class: no change; viability robust z-score: -0.92; caspase robust z-score: 0.75

How did the screen score ACOT9?
viability hit class: no change; caspase hit class: no change; viability robust z-score: 0.04; caspase robust z-score: -1.02

What did the screen give for CNOT12?
viability hit class: no change; caspase hit class: no change; viability robust z-score: -2.35; caspase robust z-score: 0.49

Which result is listed for CRYGS?
viability hit class: no change; caspase hit class: no change; viability robust z-score: 1.56; caspase robust z-score: -0.24

For GSDMB, how do the results read?
viability hit class: no change; caspase hit class: no change; viability robust z-score: -0.04; caspase robust z-score: 1.03

For SLC28A2, what does the deposit list?
viability hit class: no change; caspase hit class: no change; viability robust z-score: -0.71; caspase robust z-score: -0.53

How did the screen score PPP1R11?
viability hit class: no change; caspase hit class: no change; viability robust z-score: 1.21; caspase robust z-score: 0.34

Reformatted: results already given
{"gene symbol": "ACOT9", "viability hit class": "no change", "caspase hit class": "no change", "viability robust z-score": 0.04, "caspase robust z-score": -1.02}
{"gene symbol": "CNOT12", "viability hit class": "no change", "caspase hit class": "no change", "viability robust z-score": -2.35, "caspase robust z-score": 0.49}

The listing continues:
What did the screen give for CTNS?
viability hit class: no change; caspase hit class: no change; viability robust z-score: 0.91; caspase robust z-score: -0.52

With CLEC2L, how do the results read?
viability hit class: no change; caspase hit class: no change; viability robust z-score: 1.43; caspase robust z-score: -0.59

What did the screen give for SEMA3A?
viability hit class: no change; caspase hit class: no change; viability robust z-score: -0.74; caspase robust z-score: 0.73

For NFE2L2, what does the deposit list?
viability hit class: no change; caspase hit class: no change; viability robust z-score: -0.52; caspase robust z-score: 0.21

What did the screen give for TRIT1?
viability hit class: no change; caspase hit class: no change; viability robust z-score: 0.33; caspase robust z-score: 1.29

For CCDC54, what does the deposit list?
viability hit class: no change; caspase hit class: no change; viability robust z-score: -0.48; caspase robust z-score: -0.7

What did the screen give for ZNF398?
viability hit class: no change; caspase hit class: no change; viability robust z-score: -1.22; caspase robust z-score: 0.55

For RORB, what does the deposit list?
viability hit class: no change; caspase hit class: no change; viability robust z-score: -2.42; caspase robust z-score: 2.17

For CAPS, what was measured?
viability hit class: no change; caspase hit class: no change; viability robust z-score: -0.18; caspase robust z-score: -0.05

With GAS1, what does the deposit list?
viability hit class: no change; caspase hit class: no change; viability robust z-score: 1.22; caspase robust z-score: 0.83

For PSME1, how do the results read?
viability hit class: no change; caspase hit class: no change; viability robust z-score: -0.54; caspase robust z-score: -0.38

What did the screen give for PORCN?
viability hit class: no change; caspase hit class: no change; viability robust z-score: 0.59; caspase robust z-score: -0.52

What did the screen give for HHLA2?
viability hit class: no change; caspase hit class: no change; viability robust z-score: -0.06; caspase robust z-score: -0.46

What is on record for CHCHD6?
viability hit class: no change; caspase hit class: no change; viability robust z-score: 0.23; caspase robust z-score: -0.34
